These are yes or no findings as the source states them, for the method shown. Binding seen in cells or lysates may run through a third protein. Some entries that bind do so weakly or less than the wild type.
Molecular target: histone methyltransferase enhancer of zeste homolog 2 (EZH2) (human (endogenous in PC3 and C4-2B-N)) (UniProt Q15910)
Assay: co-IP; total cell lysates of NE-like cells; anti-EZH2 antibody on PC3 lysate blotted for RACGAP1, anti-RACGAP1 antibody on C4-2B-N lysate blotted for EZH2; protein A/G beads, overnight at 4°C

Protein sequences, listed by entry. Tags and fused reporters are not part of them.
UniProt Q15910: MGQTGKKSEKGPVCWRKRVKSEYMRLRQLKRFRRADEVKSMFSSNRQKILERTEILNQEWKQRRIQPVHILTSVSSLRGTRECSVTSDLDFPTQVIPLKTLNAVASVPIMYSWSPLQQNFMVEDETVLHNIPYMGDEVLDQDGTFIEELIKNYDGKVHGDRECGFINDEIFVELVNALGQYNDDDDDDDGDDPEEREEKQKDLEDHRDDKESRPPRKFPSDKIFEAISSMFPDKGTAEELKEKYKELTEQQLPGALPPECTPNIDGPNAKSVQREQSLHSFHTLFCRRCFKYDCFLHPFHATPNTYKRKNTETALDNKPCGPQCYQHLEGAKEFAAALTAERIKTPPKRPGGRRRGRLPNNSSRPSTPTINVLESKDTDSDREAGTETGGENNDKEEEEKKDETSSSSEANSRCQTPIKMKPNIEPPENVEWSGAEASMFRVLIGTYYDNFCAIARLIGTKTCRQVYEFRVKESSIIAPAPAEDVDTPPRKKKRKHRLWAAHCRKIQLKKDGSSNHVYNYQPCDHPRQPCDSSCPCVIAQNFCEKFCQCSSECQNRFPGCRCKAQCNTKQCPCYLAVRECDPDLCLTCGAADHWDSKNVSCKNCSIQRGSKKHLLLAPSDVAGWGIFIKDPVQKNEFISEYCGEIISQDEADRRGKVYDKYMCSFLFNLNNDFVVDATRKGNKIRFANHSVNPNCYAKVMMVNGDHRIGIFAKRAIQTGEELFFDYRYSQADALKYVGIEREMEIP

binding: binds
B1: RacGTP enzyme activating protein 1 (RACGAP1) (protein, UniProt Q9H0H5 1-632)
chain: MDTMMLNVRNLFEQLVRRVEILSEGNEVQFIQLAKDFEDFRKKWQRTDHELGKYKDLLMKAETERSALDVKLKHARNQVDVEIKRRQRAEADCEKLERQIQLIREMLMCDTSGSIQLSEEQKSALAFLNRGQPSSSNAGNKRLSTIDESGSILSDISFDKTDESLDWDSSLVKTFKLKKREKRRSTSRQFVDGPPGPVKKTRSIGSAVDQGNESIVAKTTVTVPNDGGPIEAVSTIETVPYWTRSRRKTGTLQPWNSDSTLNSRQLEPRTETDSVGTPQSNGGMRLHDFVSKTVIKPESCVPCGKRIKFGKLSLKCRDCRVVSHPECRDRCPLPCIPTLIGTPVKIGEGMLADFVSQTSPMIPSIVVHCVNEIEQRGLTETGLYRISGCDRTVKELKEKFLRVKTVPLLSKVDDIHAICSLLKDFLRNLKEPLLTFRLNRAFMEAAEITDEDNSIAAMYQAVGELPQANRDTLAFLMIHLQRVAQSPHTKMDVANLAKVFGPTIVAHAVPNPDPVTMLQDIKRQPKVVERLLSLPLEYWSQFMMVEQENIDPLHVIENSNAFSTPQTPDIKVSLLGPVTTPEHQLLKTPSSSSLSQRVRSTLTKNTPRFGSKSKSATNLGRQGNFFASPMLK
